# According to the supplement of paper PMC3682954:
# “And” between values parts separate entries of the source, which are not always exact repeats. Identical values can stand only once. Counter-ions that a name gives are not always drawn. ± gives the standard deviation of the averaged measurements. Some of the results follow. Repeats are few or missing, and single values can be far off.
# Test system: RAW 264.7
# Experiment: cell viability (MTT) relative to vehicle control; higher = more viable cells
# Conditions: stimulus: HMGB1 5 ug/ml, 18 h
# [1] = compound concentration: 1 ug/ml
Structure (SMILES),cell viability (compound concentration: 3 uM),cell viability [1] [%]
Cc1cc2c(OCC(CNC(C)(C)C)OC(=O)c3ccccc3)cccc2[nH]1 (stereo not given) [Bopindolol],91.6%,
COc1ccc(CN(CCN(C)C)c2ncccn2)cc1,101%,
"N=C(N)SCCc1ccc(CCSC(=N)N)cc1 [1,4-PBIT dihydrobromide]",108%,
NCC(=O)CCC(=O)O,109%,
CNCCC=C1c2ccccc2C=Cc2ccccc21 [Norcyclobenzaprine],89.8%,
NC(=O)c1ccc[n+]([C@@H]2O[C@H](COP(=O)([O-])OP(=O)(O)OC[C@H]3O[C@@H](n4cnc5c(N)ncnc54)[C@H](O)[C@@H]3O)[C@@H](O)[C@H]2O)c1 [Nadide],134%,
NC(=O)c1ccc[n+]([C@@H]2O[C@H](COP(=O)([O-])OP(=O)(O)OC[C@H]3O[C@@H](n4cnc5c(N)ncnc54)[C@H](O)[C@@H]3O)[C@@H](O)[C@H]2O)c1,104%,
COc1c(C)c2c(c(O)c1C/C=C(\C)CCC(=O)OCCN1CCOCC1)C(=O)OC2 [Mycophenolate mofetil],44.6%,
CN1C(C(=O)Nc2ccccn2)=C(O)c2ccccc2S1(=O)=O,100%,
CN1C(C(=O)Nc2ccccn2)=C(O)c2ccccc2S1(=O)=O [Piroxicam],99.6 ± 7.8%,
NCCS [Cysteamine hydrochloride],110%,
NCCS,109%,
COCCOC(=O)C1=C(C)NC(C)=C(C(=O)OC(C)C)C1c1cccc([N+](=O)[O-])c1 (stereo not given),97.7 ± 4.4%,
COCCOC(=O)C1=C(C)NC(C)=C(C(=O)OC(C)C)C1c1cccc([N+](=O)[O-])c1 (stereo not given) [Nimodipine],103 ± 9.9%,
COC(=O)CCc1ccc(OCC(O)CNC(C)C)cc1 (stereo not given) [Esmolol hydrochloride],95.3%,
COC(=O)CCc1ccc(OCC(O)CNC(C)C)cc1 (stereo not given),102%,
COC(=O)CCc1ccc(OCC(O)CNC(C)C)cc1 (stereo not given) [Esmolol],99%,
CC(N)(Cc1ccc(O)cc1)C(=O)O (racemic) [DL-alpha-Methyl-p-tyrosine],112%,
NC(=O)OCC(O)COc1ccc(Cl)cc1 (stereo not given) [Chlorphensin carbamate],115%,
CC1(C)S[C@@H]2[C@H](NC(=O)[C@H](N)c3ccccc3)C(=O)N2[C@H]1C(=O)OC1OC(=O)c2ccccc21 (stereo not given in full) [Talampicillin hydrochloride],98.6%,
"Oc1cc(O)c2c(c1)O[C@H](c1ccc(O)c(O)c1)[C@@H](O)C2 (racemic) [Catechin-(+,-) hydrate]",95.8%,
CC1(C)[C@@H](O)CC[C@]2(C)[C@H]3C(=O)C=C4[C@@H]5C[C@@](C)(C(=O)O)CC[C@]5(C)CC[C@@]4(C)[C@]3(C)CC[C@@H]12 [Enoxolone],,86

Structure (SMILES),cell viability (compound concentration: 3 uM),cell viability [1] [%]
CC1(C)[C@@H](O)CC[C@]2(C)[C@H]3C(=O)C=C4[C@@H]5C[C@@](C)(C(=O)O)CC[C@]5(C)CC[C@@]4(C)[C@]3(C)CC[C@@H]12,112%,
COc1ccc2c(c1)c(CC(=O)O)c(C)n2Cc1ccc(Cl)cc1 [1-(4-Chlorobenzyl)-5-methoxy-2-methylindole-3-acetic acid],97.7%,
C[C@]12CCC(=O)C=C1C=C[C@@H]1[C@@H]2CC[C@@]2(C)[C@H]1CC[C@@]21CCC(=O)O1 [Canrenone],85.6 ± 16%,
C[C@]12CCC(=O)C=C1C=C[C@@H]1[C@@H]2CC[C@@]2(C)[C@H]1CC[C@@]21CCC(=O)O1,105%,
"COC(=O)[C@@H](N)Cc1ccc(O)c(O)c1 [L-3,4-Dihydroxyphenylalanine methyl ester hydrochloride]",114%,
Cc1c(NC(C)C)c(=O)n(-c2ccccc2)n1C [Isopyrin hydrochloride],135%,
Cc1c(NC(C)C)c(=O)n(-c2ccccc2)n1C,110%,
COc1cccc(N(C)C(=S)Oc2ccc3c(c2)CCCC3)n1 [Liranaftate],132%,
NCCc1cc[nH]n1 [Betazole hydrochloride],91.3%,
CCCNC(C)C(=O)Nc1c(C)csc1C(=O)OC (stereo not given) [Articaine hydrochloride],78%,
COc1cc(/C=C(\C#N)C(=O)c2ccc(O)c(O)c2)cc(I)c1O [I-OMe-Tyrphostin AG 538],119%,
NC(Cc1cnc[nH]1)C(=O)NC(CO)C(=O)O (stereo not given),,89.9
CC(C[N+](C)(C)C)OC(N)=O (stereo not given) [Bethanechol chloride],97.4 ± 5.6%,
CC(C[N+](C)(C)C)OC(N)=O (stereo not drawn) [Carbamyl-beta-methylcholine],101%,
CC(C[N+](C)(C)C)OC(N)=O (stereo not given),108%,
NCCC(O)(P(=O)(O)O)P(=O)(O)O [Pamidronic acid],106%,
N[C@@H](Cc1c[nH]cn1)C(=O)O [L-Histidine hydrochloride],102%,
CC(=O)Oc1cc(OC(C)=O)c2c(=O)cc(-c3ccc(OC(C)=O)c(OC(C)=O)c3)oc2c1,,95.4
"Cc1cn([C@H]2C[C@H](N=[N+]=[N-])[C@@H](CO)O2)c(=O)[nH]c1=O [Zidovudine, AZT]",85.1%,
Cc1cn([C@H]2C[C@H](N=[N+]=[N-])[C@@H](CO)O2)c(=O)[nH]c1=O,103%,
Cc1cn([C@H]2C[C@H](N=[N+]=[N-])[C@@H](CO)O2)c(=O)[nH]c1=O [3'-Azido-3'-deoxythymidine],103 ± 8%,
COc1ccc([C@@H]2Sc3ccccc3N(CCN(C)C)C(=O)[C@@H]2OC(C)=O)cc1 [Diltiazem],102%,

Structure (SMILES),cell viability (compound concentration: 3 uM),cell viability [1] [%]
COc1ccc([C@@H]2Sc3ccccc3N(CCN(C)C)C(=O)[C@@H]2OC(C)=O)cc1 [Diltiazem hydrochloride],106 ± 2.8%,
COc1ccc([C@@H]2Sc3ccccc3N(CCN(C)C)C(=O)[C@@H]2OC(C)=O)cc1,98.7%,
CN(C)CCN(Cc1ccc(Cl)cc1)c1ccccn1 [Chloropyramine hydrochloride],101%,
CN(C)CCN(Cc1ccc(Cl)cc1)c1ccccn1,107%,
NS(=O)(=O)Cc1noc2ccccc12 [Zonisamide],105 ± 5.1%,
CC(C)[C@@H](C)/C=C/[C@@H](C)[C@H]1CC[C@H]2/C(=C/C=C3\C[C@@H](O)CC[C@@H]3C)CCC[C@]12C [dihydrotachysterol],,127
COc1ccc2c(c1)C(=O)N(CCc1ccc(S(=O)(=O)NC(=O)NC3CCCCC3)cc1)C(=O)C2(C)C [Gliquidone],66.5%,
CCCCCCCCCCOc1cc2c(O)c(C(=O)OCC)cnc2cc1OCC,109%,
CCCCC1C(=O)N(c2ccccc2)N(c2ccccc2)C1=O [Phenylbutazone],94.4 ± 12%,
CCCCC1C(=O)N(c2ccccc2)N(c2ccccc2)C1=O,111%,
N=C(N)SCCN [2-(2-Aminoethyl)isothiourea dihydrobromide],104%,
N=C(N)N1CCc2ccccc2C1 [Debrisoquin sulfate],94.7 ± 23%,
N=C(N)N1CCc2ccccc2C1 [Debrisoquin],106%,
N=C(N)N1CCc2ccccc2C1,113%,
CC1=CC(=O)c2ccccc2C1=O,103%,
CC(=O)/N=c1/sc(S(N)(=O)=O)nn1C,109%,
CC(=O)/N=c1/sc(S(N)(=O)=O)nn1C [Methazolamide],77.9%,
NC(N)=NCCC[C@H](NC(=O)c1ccccc1)C(=O)O [N-à-Benzoyl-L-arginine],,96.7
"O=C(O)Cc1ccc(O)c(O)c1 [3,4-Dihydroxyphenylacetic acid]",96.9%,
CCCc1nc2c(C)cc(-c3nc4ccccc4n3C)cc2n1Cc1ccc(-c2ccccc2C(=O)O)cc1 [Telmisartan],86.4 ± 1.3%,
CCCc1nc2c(C)cc(-c3nc4ccccc4n3C)cc2n1Cc1ccc(-c2ccccc2C(=O)O)cc1,93.6%,
CCCCOC(=O)c1ccc(O)cc1 [Butylparaben],92.4%,

Structure (SMILES),cell viability (compound concentration: 3 uM),cell viability [1] [%]
CCCCOC(=O)c1ccc(O)cc1,105%,
C#C[C@]1(OC(C)=O)CC[C@H]2[C@@H]3CCC4=CC(=O)CC[C@@H]4[C@H]3CC[C@@]21C,110%,
COCCCOc1cc(C[C@@H](C[C@H](N)[C@@H](O)C[C@H](C(=O)NCC(C)(C)C(N)=O)C(C)C)C(C)C)ccc1OC,110%,
CNCCCCOc1ccccc1Cc1ccccc1 [Bifemelane],94.4%,
"O=C(O)Cc1cc(I)c(Oc2ccc(O)c(I)c2)c(I)c1 [Tiratricol, 3,3',5-triiodothyroacetic acid]",97.3%,
O=C(O)Cc1cc(I)c(Oc2ccc(O)c(I)c2)c(I)c1,112%,
COCCCOc1ccnc(C[S+]([O-])c2nc3ccccc3[nH]2)c1C (stereo not given) [Rabeprazole],117%,
COCCCOc1ccnc(C[S+]([O-])c2nc3ccccc3[nH]2)c1C (stereo not given),96.3% and 93.9%,
CCN(CC)CCCN(c1ccccc1)C1Cc2ccccc2C1 [Aprindine hydrochloride],109%,
CC(Cc1ccc(O)c(O)c1)C(C)Cc1ccc(O)c(O)c1 (stereo not given) [Nordihydroguaiaretic acid],,91.6
O=C(CCCCC(=O)Nc1c(I)cc(I)c(C(=O)O)c1I)Nc1c(I)cc(I)c(C(=O)O)c1I [Iodipamide],80.5%,
O=C(CCCCC(=O)Nc1c(I)cc(I)c(C(=O)O)c1I)Nc1c(I)cc(I)c(C(=O)O)c1I,103%,
"c1ccc(CN2CCC3(CCCc4ccccc43)CC2)cc1 [L-687,384 hydrochloride]",97.3%,
CNCC[C@@H](Oc1ccccc1C)c1ccccc1 [Tomoxetine hydrochloride],113%,
CNCC[C@@H](Oc1ccccc1C)c1ccccc1 [Tomoxetine],119%,
CNCC[C@@H](Oc1ccccc1C)c1ccccc1,108%,
Cc1ccc(C(=O)C(C)CN2CCCCC2)cc1 (stereo not given),110%,
CSc1nc(N)c2ncn([C@@H]3O[C@H](COP(=O)(O)OP(=O)(O)O)[C@H](O)C3O)c2n1 (stereo not given in full),114%,
Nc1c(S(=O)(=O)O)cc(Nc2ccc(Nc3nc(Cl)nc(Nc4cccc(S(=O)(=O)O)c4)n3)c(S(=O)(=O)O)c2)c2c1C(=O)c1ccccc1C2=O [Reactive Blue 2],122%,
